These are yes or no findings as the source states them, for the method shown.
Target: HCV isolate J6 E2core+stem (residues 456-713) (Hepatitis C virus isolate J6 (genotype 2a)) (UniProt P26660)
Test: SEC; E2core+stem, with or without 2A12 Fab, incubated with hCD81-LEL (1:1.3 molar ratio) overnight at 4 °C; Superdex200 in 20 mM sodium citrate pH 4.5, 100 mM NaCl (low pH); both purified

Chains of the proteins cited; added tags and fusions are not shown. Residues count along the entry.
UniProt P26660, residues 456-713: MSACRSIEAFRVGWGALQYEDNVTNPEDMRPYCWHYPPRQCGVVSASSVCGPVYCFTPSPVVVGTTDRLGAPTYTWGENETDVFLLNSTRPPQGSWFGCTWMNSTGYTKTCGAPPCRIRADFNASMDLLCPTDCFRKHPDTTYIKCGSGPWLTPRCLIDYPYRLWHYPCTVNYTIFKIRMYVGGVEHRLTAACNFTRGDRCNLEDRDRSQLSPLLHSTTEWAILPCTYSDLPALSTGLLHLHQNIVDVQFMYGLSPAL

B1: human CD81 large extracellular loop (residues 112-202) (domain or fragment, UniProt P60033 112-202)
chain: GFVNKDQIAKDVKQFYDQALQQAVVDDDANNAKAVVKTFHETLDCCGSSTLTALTTSVLKNNLCPSGSNIISNLFKEDCHQKIDDLFSGKL
With B1 the binding was “no binding”.
